In the supplement of paper PMC7877785:
± gives the uncertainty stated by the source. Many entries were measured with a wide error.

Experiment: self-splicing fitness, log relative to wild type (ln ratio); higher = more splicing; Tetrahymena group I intron in knt gene, E. coli kanamycin selection, DiMSum; sequences stand for … in CUCUCU…GGAGGGAAAAGUUAUCAGGCAUGCACCUGGUAGCUAGUCUUUAAACCAAUAGAUUGCAUCGGUUUAAAAGGCAAGACCGUCAAAUUGCGGGAAAGGGGUCAACAGCCGUUCAGUACCAAGUCUCAGGGGAAACUUUGAGAUGGCCUUGCAAAGGGUAUGGUAAUAAGCUGACGGACAUGGUCCUAACCACGCAGCCAAGUCCUAAGUCAACAGAUCUUCUGUUGAUAUGGAUGCAGUUCACAGACUAAAUGUCGGUCGGGGAAGAUGUAUUCUUCUCAUAAGAUAUAGUCGGACCUCUCCUUAAUGGGAGCUAGCGGAUGAAGUGAUGCAACACUGGAGCCGCUGGGAACUAAUUUGUAUGCGAAAGUAUAUUGAUUAGUUUUGGAGUACUCGUGGUCG
Method in brief: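 Colonies from six replicate transformations of E. coli BL21(DE3) were pooled and amplicon-sequenced on an Illumina HiSeq 2500. The library placed an intron with all eight P1ex-region nucleotides randomised inside the knt kanamycin-resistance gene on pET-22b(+), and cells grew overnight at 37°C or 30°C on LB agar with or without 25 μg/mL kanamycin (plus 100 μg/mL carbenicillin, 50 μM IPTG, 0.2% rhamnose). Fitness is the DiMSum error-weighted combination of wild-type-normalised replicate fold changes, kanamycin versus none.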

Sequence	self-splicing fitness (ln) (30 °C)	self-splicing fitness (ln) (37 °C)
UCAGAGCAAUAUUACGGCAG	-3.72 ± 1	–
GCGGAGCAAUAUUACGAGGU	–	-4.04 ± 0.72
GUCGAGCAAUAUUACGAACC	-1.87 ± 0.52	-0.304 ± 0.93
CGUCAGCAAUAUUACGAACG	-2.55 ± 0.17	-1.32 ± 0.18
GCAGAGCAAUAUUACGGCCC	–	-1.65 ± 0.69
GGUCAGCAAUAUUACGUACC	–	0.12 ± 0.76
AGCGAGCAAUAUUACGCAGC	–	-1.52 ± 0.5
GUUGAGCAAUAUUACGAAUG	-4.07 ± 0.51	–
GCACAGCAAUAUUACGAAUC	-1.15 ± 0.076	-0.69 ± 0.079
AACCAGCAAUAUUACGUUAG	-3.68 ± 0.11	-2.44 ± 0.11
UGGUAGCAAUAUUACGGGAC	-4.19 ± 1	–
GGAGAGCAAUAUUACGGCCC	-2.61 ± 0.85	-1.38 ± 0.87
CGAAAGCAAUAUUACGAGGU	-4.7 ± 0.58	–
GCGGAGCAAUAUUACGGUAG	–	-3.32 ± 0.6
GGCUAGCAAUAUUACGCCCU	–	0.0828 ± 0.36
UCCAAGCAAUAUUACGCUGC	-2.94 ± 0.21	-2.61 ± 0.27
GGGGAGCAAUAUUACGGCCG	0.671 ± 0.55	-1.13 ± 0.6
UAGUAGCAAUAUUACGUCCC	-3.19 ± 1.2	0.000402 ± 1.2
GGAGAGCAAUAUUACGGGCU	–	-2.92 ± 0.53
CAGGAGCAAUAUUACGGCCA	-4.26 ± 1	0.122 ± 0.3
CGCAAGCAAUAUUACGCAGC	-5.08 ± 0.72	–
GAGGAGCAAUAUUACGCAAC	–	-2.95 ± 0.61
UUUGAGCAAUAUUACGCAGA	-2.9 ± 0.54	–
CUAGAGCAAUAUUACGAUUA	-2.49 ± 0.23	-2.26 ± 0.23
GUUAAGCAAUAUUACGUAUA	-1.79 ± 0.14	-1.54 ± 0.15
UCUGAGCAAUAUUACGAGCC	–	-2.92 ± 0.61

Part of the list above, set out differently:

| Sequence | self-splicing fitness (ln) (30 °C) | self-splicing fitness (ln) (37 °C) |
| --- | --- | --- |
| GCAGAGCAAUAUUACGGCCC | – | -1.65 ± 0.69 |
| AGCGAGCAAUAUUACGCAGC | – | -1.52 ± 0.5 |
| GUUGAGCAAUAUUACGAAUG | -4.07 ± 0.51 | – |
| GCACAGCAAUAUUACGAAUC | -1.15 ± 0.076 | -0.69 ± 0.079 |
| GGCUAGCAAUAUUACGCCCU | – | 0.0828 ± 0.36 |
| UCCAAGCAAUAUUACGCUGC | -2.94 ± 0.21 | -2.61 ± 0.27 |
| GGGGAGCAAUAUUACGGCCG | 0.671 ± 0.55 | -1.13 ± 0.6 |
| CGCAAGCAAUAUUACGCAGC | -5.08 ± 0.72 | – |
| GAGGAGCAAUAUUACGCAAC | – | -2.95 ± 0.61 |
| UUUGAGCAAUAUUACGCAGA | -2.9 ± 0.54 | – |

The list goes on:

Sequence	self-splicing fitness (ln) (30 °C)	self-splicing fitness (ln) (37 °C)
GUUUAGCAAUAUUACGAUUG	-1.55 ± 0.76	-1.65 ± 0.66
AAAUAGCAAUAUUACGCUCU	-0.111 ± 0.075	-0.0401 ± 0.091
CUGAAGCAAUAUUACGAGAA	–	-2.45 ± 0.64
UUGCAGCAAUAUUACGAUAC	-3.58 ± 0.74	-1.74 ± 0.47
UGGGAGCAAUAUUACGAGUC	-3.92 ± 0.61	–
CAUCAGCAAUAUUACGCCUC	-3.83 ± 0.52	–
UUGGAGCAAUAUUACGACCG	-1.27 ± 0.71	-2.69 ± 0.62
GCGAAGCAAUAUUACGGGUC	-5.35 ± 1	–
GAAAAGCAAUAUUACGCCUC	–	-2.29 ± 1.1
CGAAAGCAAUAUUACGGUAC	–	-3.54 ± 0.73
UCCGAGCAAUAUUACGAACC	–	-0.927 ± 1.2
UAUUAGCAAUAUUACGUCGC	-3.35 ± 1	-2.52 ± 0.54
UCGUAGCAAUAUUACGGCUC	-3.78 ± 0.52	–
GAGGAGCAAUAUUACGCUUU	-4.66 ± 1	-2.06 ± 0.41
CUUAAGCAAUAUUACGAUAA	-4.53 ± 0.59	–
UCUAAGCAAUAUUACGUUUA	-3.99 ± 0.73	–
CAGGAGCAAUAUUACGCGAC	-2.82 ± 0.76	-0.754 ± 0.54
GGGUAGCAAUAUUACGCAAC	-2.29 ± 0.57	–
CACGAGCAAUAUUACGUUCA	-2.99 ± 0.18	-2.49 ± 0.24
GUCGAGCAAUAUUACGAGGA	-2.93 ± 0.51	–
UCGGAGCAAUAUUACGCAUU	-3.93 ± 0.52	–
CGUGAGCAAUAUUACGACCA	-2.42 ± 0.58	–
AUACAGCAAUAUUACGCAAU	-1.93 ± 0.15	-1.02 ± 0.16
CUAGAGCAAUAUUACGUCCC	-2.82 ± 0.64	–
CAAUAGCAAUAUUACGUGAG	-0.424 ± 0.076	0.678 ± 0.11
CUAGAGCAAUAUUACGCCGC	–	-2.66 ± 0.66
